Numbering of substitutions follows the chain as printed. Names and notes keep the numbering of the source. No constants are given. Whether binding was seen depends on the method and setting. Binding seen in cells or lysates may run through a third protein. Some entries that bind do so weakly or less than the wild type. Sequences can lack the tags named with a protein. One block for each binder: values may come before it.
Tests used:
Flag-tagged USP19 = biological target: T1, Flag-tagged USP19 (UniProt O94966); test: co-IP; HEK293 cells transfected with HA-PAHwt, HA-R241C or HA-R243Q along with Flag-USP19; lysed in IP lysis buffer (150 mM NaCl, 1 mM EDTA, 25 mM Tris-HCl pH 7.4, 1% NP-40, 5% glycerol); lysates incubated with anti-Flag or anti-HA antibody at 4 °C overnight, Protein A/G Plus Agarose beads, immunoblot with reciprocal antibodies
T1 sequence: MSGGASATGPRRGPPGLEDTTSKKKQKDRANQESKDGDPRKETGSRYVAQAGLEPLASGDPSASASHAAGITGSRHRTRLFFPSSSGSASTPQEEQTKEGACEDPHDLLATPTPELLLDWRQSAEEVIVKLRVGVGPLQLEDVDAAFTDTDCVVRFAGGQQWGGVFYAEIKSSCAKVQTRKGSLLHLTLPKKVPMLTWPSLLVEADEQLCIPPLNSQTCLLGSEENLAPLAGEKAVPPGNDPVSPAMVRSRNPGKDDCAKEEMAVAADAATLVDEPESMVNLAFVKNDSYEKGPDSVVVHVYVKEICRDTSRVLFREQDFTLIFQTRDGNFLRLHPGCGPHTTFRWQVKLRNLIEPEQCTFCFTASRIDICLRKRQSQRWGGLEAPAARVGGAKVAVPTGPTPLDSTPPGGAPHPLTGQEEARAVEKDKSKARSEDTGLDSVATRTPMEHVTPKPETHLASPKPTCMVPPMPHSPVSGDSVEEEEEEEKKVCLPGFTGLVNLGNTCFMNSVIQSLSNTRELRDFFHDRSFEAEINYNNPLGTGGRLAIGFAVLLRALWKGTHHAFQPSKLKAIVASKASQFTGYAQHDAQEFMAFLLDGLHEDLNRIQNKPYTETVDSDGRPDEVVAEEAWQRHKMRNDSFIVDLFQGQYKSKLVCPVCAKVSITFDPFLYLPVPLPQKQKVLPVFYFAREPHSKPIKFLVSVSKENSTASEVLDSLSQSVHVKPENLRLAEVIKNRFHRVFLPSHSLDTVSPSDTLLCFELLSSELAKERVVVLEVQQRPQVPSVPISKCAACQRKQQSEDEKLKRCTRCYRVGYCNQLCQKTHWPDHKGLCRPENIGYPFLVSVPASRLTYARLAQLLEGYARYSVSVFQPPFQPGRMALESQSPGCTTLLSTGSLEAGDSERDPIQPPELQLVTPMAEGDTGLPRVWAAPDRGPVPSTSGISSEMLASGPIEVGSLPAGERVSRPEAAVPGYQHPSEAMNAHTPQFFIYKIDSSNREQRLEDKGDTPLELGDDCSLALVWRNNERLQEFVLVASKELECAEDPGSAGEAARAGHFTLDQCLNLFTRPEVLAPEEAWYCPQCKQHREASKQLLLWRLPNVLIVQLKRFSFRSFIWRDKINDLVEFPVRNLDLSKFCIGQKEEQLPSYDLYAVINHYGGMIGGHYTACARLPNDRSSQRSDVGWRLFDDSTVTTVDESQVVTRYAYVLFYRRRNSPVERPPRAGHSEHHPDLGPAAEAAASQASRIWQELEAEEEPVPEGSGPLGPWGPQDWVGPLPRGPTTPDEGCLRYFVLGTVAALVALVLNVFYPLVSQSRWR

[1] = biological target: T2, HA-tagged PAH R243Q (human) (UniProt P00439); test: as above
T2 sequence: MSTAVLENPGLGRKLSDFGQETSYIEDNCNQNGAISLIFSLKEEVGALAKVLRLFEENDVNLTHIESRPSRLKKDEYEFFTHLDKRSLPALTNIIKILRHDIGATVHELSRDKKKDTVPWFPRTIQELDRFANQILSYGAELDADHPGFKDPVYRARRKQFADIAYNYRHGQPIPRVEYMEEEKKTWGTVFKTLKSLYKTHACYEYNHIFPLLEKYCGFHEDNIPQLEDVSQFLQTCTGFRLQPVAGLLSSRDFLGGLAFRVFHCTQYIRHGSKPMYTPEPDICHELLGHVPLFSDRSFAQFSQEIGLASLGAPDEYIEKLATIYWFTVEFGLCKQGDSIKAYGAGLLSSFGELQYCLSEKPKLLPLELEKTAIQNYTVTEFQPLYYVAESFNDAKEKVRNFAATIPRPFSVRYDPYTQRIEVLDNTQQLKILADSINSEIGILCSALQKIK

[2] = biological target: T3, HA-tagged PAH R241C (human) (UniProt P00439); test: as above
T3 sequence: T2 sequence with R241C, Q243R

[3] = biological target: T4, HA-tagged PAH wild-type (human) (UniProt P00439); test: as above
T4 sequence: T2 sequence with Q243R

[4] = biological target: T2, HA-tagged PAH R243Q (human); test: proximity ligation; Duolink in situ PLA in fixed HEK293 cells transfected with HA-tagged PAHwt, R241C or R243Q; primary antibodies against PAH and USP19 together; single antibodies as negative control
[5] = biological target: T3, HA-tagged PAH R241C (human); test: as above
[6] = biological target: T4, HA-tagged PAH wild-type (human); test: as above

B3: HA-tagged PAH R243Q (enzyme, UniProt P00439 1-452)
chain: T2 sequence
binding (Flag-tagged USP19): binds

B4: Flag-tagged USP19 (enzyme, UniProt O94966 1-1318)
chain: T1 sequence
binding [1]: binds
binding [2]: binds
binding [3]: binds

B5: USP19 (detected with USP19 antibody in HEK293 cells) (enzyme, UniProt O94966 1-1318)
chain: T1 sequence
binding [4]: binds
binding [5]: binds
binding [6]: binds

More lines, now with the values ahead:

binding (Flag-tagged USP19): binds
B1: HA-tagged PAH wild-type (enzyme, UniProt P00439 1-452)
chain: T2 sequence with Q243R

binding (Flag-tagged USP19): binds
B2: HA-tagged PAH R241C (enzyme, UniProt P00439 1-452)
chain: T2 sequence with R241C, Q243R
